Experimental findings from publication PMC4443662 are described below.

By UniProt entry, the sequences of proteins in these tests, tags left out.
UniProt O96013: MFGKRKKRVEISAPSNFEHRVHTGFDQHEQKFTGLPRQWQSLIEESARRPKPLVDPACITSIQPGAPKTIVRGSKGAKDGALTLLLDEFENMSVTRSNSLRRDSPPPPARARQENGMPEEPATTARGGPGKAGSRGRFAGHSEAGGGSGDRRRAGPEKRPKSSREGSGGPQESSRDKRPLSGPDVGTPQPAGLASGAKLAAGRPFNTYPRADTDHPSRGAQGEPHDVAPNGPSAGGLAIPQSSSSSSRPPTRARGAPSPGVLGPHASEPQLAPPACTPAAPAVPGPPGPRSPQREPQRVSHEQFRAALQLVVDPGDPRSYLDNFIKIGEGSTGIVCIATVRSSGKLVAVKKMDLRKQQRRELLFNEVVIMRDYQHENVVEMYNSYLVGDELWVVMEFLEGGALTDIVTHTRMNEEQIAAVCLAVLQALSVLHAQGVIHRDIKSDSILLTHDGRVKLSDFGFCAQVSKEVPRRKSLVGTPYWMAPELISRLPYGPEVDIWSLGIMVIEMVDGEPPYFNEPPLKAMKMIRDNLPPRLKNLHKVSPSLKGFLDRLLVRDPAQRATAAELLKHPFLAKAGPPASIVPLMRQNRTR
UniProt P53667: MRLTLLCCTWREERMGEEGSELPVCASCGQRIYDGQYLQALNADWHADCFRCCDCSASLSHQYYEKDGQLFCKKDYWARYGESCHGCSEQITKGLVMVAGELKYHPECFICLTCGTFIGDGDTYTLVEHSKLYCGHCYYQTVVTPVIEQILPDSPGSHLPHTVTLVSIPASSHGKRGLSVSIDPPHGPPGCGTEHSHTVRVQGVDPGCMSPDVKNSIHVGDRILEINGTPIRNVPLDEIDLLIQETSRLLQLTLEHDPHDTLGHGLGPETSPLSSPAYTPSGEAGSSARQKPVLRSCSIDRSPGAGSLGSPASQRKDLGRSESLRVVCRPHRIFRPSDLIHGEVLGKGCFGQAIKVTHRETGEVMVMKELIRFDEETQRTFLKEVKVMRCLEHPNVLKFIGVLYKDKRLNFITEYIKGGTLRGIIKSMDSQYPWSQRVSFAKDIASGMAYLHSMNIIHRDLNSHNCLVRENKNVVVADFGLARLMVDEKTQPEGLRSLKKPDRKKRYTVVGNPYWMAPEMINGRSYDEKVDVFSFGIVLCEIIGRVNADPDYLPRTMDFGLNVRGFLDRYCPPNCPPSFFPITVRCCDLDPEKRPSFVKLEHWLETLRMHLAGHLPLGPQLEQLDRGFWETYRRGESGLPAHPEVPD

These are yes or no findings as the source states them, for the method shown. Binding seen in cells or lysates may run through a third protein. Some binding calls cover weakened binding; strength is not graded here.

The target of test [1] is P21-activated kinase 4 (human (endogenous in A549 and NCI-H520)) (UniProt O96013). Briefly: co-IP; A549 or NCI-H520 cell lysates (1 % Triton X-100, 150 mM NaCl, 20 mM Tris-Cl pH 7.4, 4 °C) immunoprecipitated with PAK4 or LIMK1 antibody and Protein G Plus/Protein A-Agarose; western blotting with anti-LIMK1 or anti-PAK4; control IgG.
For test [2], the target named is LIM kinase 1 (human (endogenous in A549 and NCI-H520)) (UniProt P53667). Described as above.

“LIM kinase 1 (from UniProt P53667 1-647)”: the binding result in test [1] is recorded as “binds”.

Turning to “P21-activated kinase 4 (from UniProt O96013 1-591)”, the binding result in test [2] was “binds”.
